Assay results: publication PMC7083216
No constants are given. Whether binding was seen depends on the method and setting. Binding seen in cells or lysates may run through a third protein. Some entries that bind do so weakly or less than the wild type.

Protein sequences, listed by entry. Tags and fused reporters are not part of them. Lines headed by an entry give the natural chain unless they say otherwise; changes in a name come on top.
UniProt P14416: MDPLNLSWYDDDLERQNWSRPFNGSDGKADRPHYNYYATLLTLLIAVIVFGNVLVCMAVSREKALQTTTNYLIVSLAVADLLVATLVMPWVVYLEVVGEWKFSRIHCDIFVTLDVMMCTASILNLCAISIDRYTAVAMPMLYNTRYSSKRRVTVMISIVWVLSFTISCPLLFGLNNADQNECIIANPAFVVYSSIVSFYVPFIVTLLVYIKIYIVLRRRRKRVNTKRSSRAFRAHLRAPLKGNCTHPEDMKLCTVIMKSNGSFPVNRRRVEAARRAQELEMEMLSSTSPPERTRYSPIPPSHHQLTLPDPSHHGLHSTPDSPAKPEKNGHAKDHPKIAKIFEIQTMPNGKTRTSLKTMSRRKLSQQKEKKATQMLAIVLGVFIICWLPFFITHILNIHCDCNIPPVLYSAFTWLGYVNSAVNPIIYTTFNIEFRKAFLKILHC

Assays:
[1] = molecular target: HA-M1R (muscarinic acetylcholine M1 receptor) (UniProt P11229); experiment: co-IP; HEK293T co-transfected with pFLAG-D2R and pHA-M1R, 48 h; membrane pellet lysed in RIPA buffer; immunoprecipitation with mouse anti-HA and Protein-A resin at 4°C; blot with rabbit anti-FLAG
[2] = molecular target: HA-M1R (muscarinic acetylcholine M1 receptor) (UniProt P11229); experiment: condition: only extracts of separately transfected cells mixed; co-IP; extract mix of HEK293T cells transfected separately with FLAG-D2R or HA-M1R; immunoprecipitation with anti-HA; blot with anti-FLAG
[3] = molecular target: M1R-LgBiT (human) (UniProt P11229); experiment: split reporter; NanoBiT in HEK293T cell suspensions in HBSS; 200 ng of each construct; furimazine; luminescence normalised to co-transfected Venus fluorescence; 48 h after transfection
[4] = molecular target: M1R-YFP (UniProt P11229); experiment: FRET or BRET; BRET1 saturation in HEK293T cell suspensions in HBSS; constant pD2R-Rluc (200 ng), increasing pM1R-YFP or pEYFP (0-1,000 ng); 5 uM h-coelenterazine; 48 h after transfection

## FLAG-D2R (dopamine D2 receptor) (from UniProt P14416 1-443)
[1]
  binding: binds
[2]
  binding: no binding

## D2R-SmBiT (from UniProt P14416 1-443) (receptor)
[3]
  binding: binds

## D2R-Rluc (from UniProt P14416 1-443) (receptor)
[4]
  binding: binds
